Percent effect of library compounds

Data taken from ChEMBL document CHEMBL3988442, “University of Dundee, Small-Polar-MMV Screening Library” (2021).

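Assay of Toxoplasma gondii numbers, read through their beta-galactosidase reporter with a colour substrate. Tested at 10 µM. The record gives no direction; the compounds picked for IC50 retests had high values, so higher reads as fewer parasites. About 67,000 compounds were tested under these conditions; 0.38% (about 260) showed 50% or more at least once.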

Each number is a percent effect as filed.
How 0% and 100% were set is not recorded. Most values in the screen are low, and negative values occur.
Compounds were drawn at random from those tested, without regard to their results.

Cc1cnc(N2CCC3(C2)C(=O)N(C)CCN3Cc2cccnc2)nc1.O=C(O)C(F)(F)F.O=C(O)C(F)(F)F (configuration not stated) gave -0.4219%. For CC(C)NC(=O)N1CC[C@@H](N(C)C)[C@@H]1Cc1ccccc1.O=C(O)C(F)(F)F the result was 0.5879%. Result for O=C(O)C(F)(F)F.[H][C@@]12COC[C@@H](C(=O)N3CCC(F)CC3)[C@]1([H])CN(CC1CC1)C2 was 0.7012%. With Cc1ccc(C(=O)N(C)CC(=O)NCC(F)(F)F)cn1 the screen gave 10.34%. Result for COc1ccc(Br)cc1CCC(=O)N1CCCC1 was 16.24%. With [H][C@]12C[C@H](CNC(=O)c3ccsc3)O[C@@]1([H])CN(C(=O)c1ccco1)C2 the screen gave 3.265%.

For CC(C)(C)c1nnc(CN2CCCC2Cn2cncn2)o1 (configuration not stated) the result was 1.721%. Cc1nc(N2CCOCC2)nc(C)c1NC(=O)c1ccco1 read 8.88%. Result for Cc1nc(NCCSc2ccccn2)c2c(C)noc2n1 was -15.77%. COCc1nnc(C(=O)N2CCC(N3CCCCC3)CC2)o1 gave 27.5%. CC(c1cccnc1)N1CCN(CCCC#N)CC1 (configuration not stated) gave -6.949%. CN(Cc1ccoc1)C(=O)Cn1ncc(N(C)C)cc1=O read -0.9107%.

COc1nc2c(cc1C(=O)NCCCc1nnc(N)s1)CCC2 gave -1.124%. CCCS(=O)(=O)N1CCC(c2ccc(OC)cc2)CC1 read -40.63%. With Cc1nc(C(=O)N2CCC(c3nccn3Cc3ccncc3)CC2)cs1 the screen gave -6.65%. Result for NCCC(Cc1ccccc1)c1ccco1 (configuration not stated) was -1.255%. Result for Cn1nccc1-c1nnn2c1COCC(CNC1CCOCC1)C2.O=C(O)C(F)(F)F.O=C(O)C(F)(F)F (configuration not stated) was -57.65%. Result for CC(C)n1nc2c(cc1=O)CN(c1ncnc3ccsc13)CC2 was 9.432%.

CC(=O)N1CC(C(=O)NCCc2ncc(C)s2)C1 gave -15.17%. With Cc1nc(CNc2cccc(Cl)c2Cl)cs1 the screen gave 0.4545%. O=S(=O)(c1cccc(F)c1)N1CCCCC1c1ccn[nH]1 (configuration not stated) read 7.613%. For CC(C)c1nc(CN2CCN(C(=O)Cc3ccccc3Cl)CC2)no1 the result was 4.994%. For Cc1nn(C)cc1CN1CCCC(n2c(=O)oc3ccccc32)C1 (configuration not stated) the result was -30.17%. Result for O=C(NCCCc1ccc(F)cc1)c1ccc(N2CCOCC2)cc1 was 8.368%.

Result for O=C(O)C(F)(F)F.O=C(O)C(F)(F)F.[H][C@@]12CCCO[C@]1([H])[C@H](Nc1ccc(C)nn1)CN(Cc1cc(C)on1)C2 was 19.53%. COc1ccc2c(c1)OCC(CNC(=O)NC(C)(C)C)C2 (configuration not stated) gave -13.69%. Result for CCOC(=O)c1cnn(C2CCN(C(=O)CC3C=CCC3)CC2)c1N (configuration not stated) was 7.325%. For Cc1ccc(CN2CCC3(CCC(C(=O)N(C)C)O3)CC2)o1.O=C(O)C(F)(F)F (configuration not stated) the result was -20.75%. CC(C)n1cc(CN2CCCN(C(=O)C3(C)CCOCC3)CC2)cn1 gave -3.699%. With CCc1nnc(CN(CC)C(=O)C2CC(=O)N(C3CCCC3)C2)o1 (configuration not stated) the screen gave -6.375%.

Result for Cn1ccnc1COc1ccc(NC(=O)CCC2CCCO2)cc1 (configuration not stated) was 5.74%. For Cc1csc(CN2CCC[C@]3(C[C@H](OCC4CC4)CO3)C2)n1 the result was -17.82%. With O=C(c1ccn(-c2ccccc2Cl)n1)N1CCCSCC1 the screen gave -10.95%. Result for CN1C[C@@H](NC(=O)CC(C)(C)C)C[C@H]1c1nc(-c2cnccn2)no1 was -3.198%. CNc1ccc(C(=O)N(C)Cc2ccc3ccccc3n2)cn1 gave 0.9929%. [H][C@@]12CS(=O)(=O)C[C@]1([H])N(C(=O)c1csc(C)n1)CCN2C(=O)N(C)C read -0.1775%.

With CC[C@H](C)[C@H](NC(=O)c1ccccc1-n1cnnn1)C(=O)OC the screen gave -2.271%. For CC(=O)N1CCCn2nc(CNS(=O)(=O)N(C)C(C)C)cc2C1 the result was -6.411%. For O=C(CCn1cc(Cl)cn1)N1CCC2(CC1)OCCCC2O (configuration not stated) the result was 1.999%. Cc1cnn(CC2CCCCN2Cc2nc(C)c3ccccc3n2)c1 (configuration not stated) read -4.824%. Cc1cccc(CN2CCC3(CCCN(Cc4cnn(C)c4)C3)C2)n1.O=C(O)C(F)(F)F.O=C(O)C(F)(F)F (configuration not stated) gave 20.32%. With Cc1cccc(C(=O)NCC(O)c2ccc(F)cc2F)c1 (configuration not stated) the screen gave -11.77%.

For reference, 5 entries once more:

* CC[C@H](C)[C@H](NC(=O)c1ccccc1-n1cnnn1)C(=O)OC | -2.271%
* CC(C)(C)c1nnc(CN2CCCC2Cn2cncn2)o1 (configuration not stated) | 1.721%
* O=C(NCCCc1ccc(F)cc1)c1ccc(N2CCOCC2)cc1 | 8.368%
* CC(C)n1cc(CN2CCCN(C(=O)C3(C)CCOCC3)CC2)cn1 | -3.699%
* Cc1ccc(C(=O)N(C)CC(=O)NCC(F)(F)F)cn1 | 10.34%